In publication PMC8579449:
Results are given in words; binding and its absence hold for the method and conditions named. In cells and extracts the contact can be indirect. Some results given as binding are weak or reduced against the parent protein; the word gives no strength.

Protein sequences, listed by entry. Tags and fused reporters are not part of them.
UniProt Q96KQ7: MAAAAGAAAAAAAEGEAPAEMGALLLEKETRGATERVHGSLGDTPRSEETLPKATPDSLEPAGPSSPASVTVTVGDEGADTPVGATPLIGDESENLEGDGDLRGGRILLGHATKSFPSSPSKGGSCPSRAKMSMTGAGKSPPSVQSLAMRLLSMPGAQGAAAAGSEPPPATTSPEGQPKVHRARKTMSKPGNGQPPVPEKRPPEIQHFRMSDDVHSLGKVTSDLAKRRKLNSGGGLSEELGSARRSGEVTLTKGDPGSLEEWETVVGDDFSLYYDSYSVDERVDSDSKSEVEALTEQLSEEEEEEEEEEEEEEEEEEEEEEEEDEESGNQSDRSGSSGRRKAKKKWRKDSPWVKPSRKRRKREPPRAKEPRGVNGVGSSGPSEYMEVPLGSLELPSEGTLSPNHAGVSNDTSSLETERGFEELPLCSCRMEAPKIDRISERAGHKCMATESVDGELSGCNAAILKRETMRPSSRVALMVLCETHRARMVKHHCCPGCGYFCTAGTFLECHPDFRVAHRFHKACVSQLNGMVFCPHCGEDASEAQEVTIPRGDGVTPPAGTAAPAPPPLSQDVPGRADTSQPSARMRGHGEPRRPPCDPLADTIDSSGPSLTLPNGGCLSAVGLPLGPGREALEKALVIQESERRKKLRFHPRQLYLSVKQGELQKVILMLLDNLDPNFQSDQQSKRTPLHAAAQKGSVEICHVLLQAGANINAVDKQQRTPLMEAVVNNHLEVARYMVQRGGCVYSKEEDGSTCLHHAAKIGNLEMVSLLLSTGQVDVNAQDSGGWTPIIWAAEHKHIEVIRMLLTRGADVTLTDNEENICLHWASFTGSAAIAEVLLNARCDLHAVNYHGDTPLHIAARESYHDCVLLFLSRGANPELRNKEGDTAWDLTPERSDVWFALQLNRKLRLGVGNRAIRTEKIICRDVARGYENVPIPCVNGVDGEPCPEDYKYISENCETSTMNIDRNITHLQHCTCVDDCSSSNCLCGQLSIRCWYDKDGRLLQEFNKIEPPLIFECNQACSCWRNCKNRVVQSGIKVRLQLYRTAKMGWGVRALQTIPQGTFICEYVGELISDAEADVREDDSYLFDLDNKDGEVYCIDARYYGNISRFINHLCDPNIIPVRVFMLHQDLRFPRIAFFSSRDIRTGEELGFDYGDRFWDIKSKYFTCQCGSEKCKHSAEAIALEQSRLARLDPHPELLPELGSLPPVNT
UniProt P01106: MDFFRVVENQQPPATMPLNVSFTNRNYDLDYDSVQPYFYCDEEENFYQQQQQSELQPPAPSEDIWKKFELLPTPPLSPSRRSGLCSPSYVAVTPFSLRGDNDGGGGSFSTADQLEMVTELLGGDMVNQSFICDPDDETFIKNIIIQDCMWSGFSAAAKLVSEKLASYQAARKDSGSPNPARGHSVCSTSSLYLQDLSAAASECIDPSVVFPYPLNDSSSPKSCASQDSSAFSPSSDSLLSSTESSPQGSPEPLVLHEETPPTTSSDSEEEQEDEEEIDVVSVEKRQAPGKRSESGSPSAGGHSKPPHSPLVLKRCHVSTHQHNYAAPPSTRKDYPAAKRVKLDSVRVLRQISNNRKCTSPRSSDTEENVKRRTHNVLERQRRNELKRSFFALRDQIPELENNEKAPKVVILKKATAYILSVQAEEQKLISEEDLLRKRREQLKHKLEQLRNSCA

Legend:
[1] = molecular target: G9a (human (endogenous in breast cancer cells)) (UniProt Q96KQ7); experiment: co-IP; immunoprecipitation with the c-MYC antibody from breast cancer cells, IgG control; cell line and conditions not told
[2] = molecular target: c-MYC (human (endogenous in breast cancer cells)) (UniProt P01106); experiment: as above

## FTH1 (from UniProt P02794 1-183)
[1]
  binding: no binding
[2]
  binding: no binding

## G9a (from UniProt Q96KQ7 1-1210)
[2]
  binding: binds
